Test results: US8980571B2, “Method of identifying a candidate compound which may inhibit α9-nAchR overexpression or estrogen receptor-dependent transcription in nicotine-derived-compound-induced breast cancer cells” (Taipei Medical University, priority 2011, dated 2015)
At least one structure is not confirmed: it was looked up by name or label, or the drawing left a doubt.

How the values were obtained:
p-Akt (Ser473) = assay: p-Akt immunoblotting analysis in MCF-7 cells; type: cell-based, human; details: 10 μM pretreatment 30 min, then nicotine 10 μM 30 min
ERα = ERα phosphorylation immunoblotting analysis in MCF-7 cells; type: cell-based, human; details: 10 μM pretreatment 30 min, then nicotine 10 μM 30 min

SMILES: O=c1cc(N2CCOCC2)oc2c(-c3ccccc3)cccc12 [Ly294002]
- effect on nicotine-induced increase in p-Akt (Ser473) protein levels (p-Akt (Ser473)): almost completely abolished
- effect on nicotine-induced ERα (Ser167) phosphorylation (ERα): inhibited to a lesser degree
